Experimental findings from publication doi:10.1101/2020.12.23.424112 are described below.

By UniProt entry, the sequences of proteins in these tests, tags left out.
UniProt P16370: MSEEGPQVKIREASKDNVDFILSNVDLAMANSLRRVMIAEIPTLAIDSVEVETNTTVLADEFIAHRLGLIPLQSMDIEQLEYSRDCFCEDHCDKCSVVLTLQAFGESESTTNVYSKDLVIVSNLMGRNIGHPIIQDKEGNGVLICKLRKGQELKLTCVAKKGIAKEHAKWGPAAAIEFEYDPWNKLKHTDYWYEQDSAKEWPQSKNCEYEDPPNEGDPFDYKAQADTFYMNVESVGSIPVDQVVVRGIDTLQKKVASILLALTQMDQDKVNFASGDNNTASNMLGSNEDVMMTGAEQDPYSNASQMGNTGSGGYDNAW

These are yes or no findings as the source states them, for the method shown. In cells and extracts the contact can be indirect. Some entries that bind do so weakly or less than the wild type. Tags and fused reporters may be left off the sequences shown.

This test has as its target Rpb3 subunit of RNA pol II (S. cerevisiae) (UniProt P16370). As to the kind of experiment: co-IP.

B1: Rtr1 TAP-tagged (RNA pol II CTD Ser5P phosphatase Rtr1) (protein, UniProt P40084 1-226)
chain: MATIEDIKETALIPFQKHRQLSMHEAEVITLEIIGLLCDSECKDEKTLKYLGRFLTPDMYQDLVDERNLNKRCGYPLCGKSPERIRDPFSMNDTTKKFLLENNPYAYLSHYCSKFHFRCSQFYQVQLSDEALFARTGVHLFEDPEQDKHDIDFKVTLFEELLREKASEEDIKSLISGLKKLGLNPDSGTTEKDDTELEDDLSKWLAQIKIVENDNPSILGDFTRED
B1: the binding result is given as “binds”.

B2: Bud27 TAP-tagged version (prefoldin-like Bud27) (protein, UniProt P43573 1-796)
chain: MDLLAASVESTLKNLQDKRNFLSEQREHYIDIRSRLVRFINDNDDGEEEGEGQGMVFGDIIISTSKIYLSLGYEYYVEKTKEEAITFVDDKLKLMEDAIEQFNLKIEEAKKTLDNLNHMEDGNGIEEDEANNDEDFLPSMEIREELDDEGNVISSSVTPTTKQPSQSNSKKEQTPAVGPKEKGLAKEKKSKSFEENLKGKLLKRNDEVKKKVQPSKVDTENVYTFADLVQQMDQQDELEDGYIETDEINYDYDAFENSNFKVNDNYEEDDEDEDEEEYLNHSIIPGFEAQSSFLQQIQRLRAQKQSQDHEREEGDVNKSLKPILKKSSFAENSDKKQKKKQVGFASSLEIHEVENLKEENKRQMQSFAVPMYETQESTGIANKMTSDEFDGDLFAKMLGVQEADEVHEKYKEELINQERLEGEASRSNRRTRVSRFRKDRASKKENTLSTFKQETTRSVENEVVEKEPVVGDIIEKEPVVGDVIEKEPVVGDVIEKEPAVTDIVEREPAVNDIVERKPVVGDIIEKEPTINDIVEKEPEINSKSEFETPFKKKKLKSLQKPRSSKSMKKKFDPKILENISDDDYDDDDDGNKKLLSNKSKNNTDEQDKFPSKIQEVSRSMAKTGATVGSEPVRITNVDYHALGGNLDDMVKAYSLGLYDDDLEEDPGTIVEKLEDFKEYNKQVELLRDEIRDFQLENKPVTMEEEENDGNVMNDIIEHEFPESYTNDEDEVALHPGRLQEEVAIEYRRLKEATASKWQSSSPAAHTEGELEPIDKFGNPVKTSRFRSQRLHMDSKP
In the case of B2, the binding entry is “binds”.
